PubChem BioAssay AID504764 | Drosophila RNAi Screening Center, 2011

Assay: 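Knock-downs that raise or lower a Notch target reporter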 (primary screen)
Cell system: Drosophila Kc167 cells
Knock-down reagent: long dsRNA against Drosophila genes
Time to read-out: about 5 days (4 days dsRNA, then 24 h after transfection)
Challenge: transfection of constitutively active membrane-tethered Notch lacking the extracellular domain, read 24 h later
Detection: 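Firefly luciferase from an E(spl)m3 reporter with active Notch, plus control-promoter and uninduced reporter wells for normalisation; unnormalised counts, duplicate wells a and b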
Reading the numbers: induced reporter light, run 1, well a and induced reporter light, run 1, well b: higher = more light from the Notch target reporter with active Notch; control promoter light, run 1, well a and control promoter light, run 1, well b: higher = more light from the viral control promoter (cell number, transfection, viability); uninduced reporter light, run 1, well a: higher = more light from the Notch target reporter without active Notch
Rule for the call: 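Hit if the duplicate-averaged log2 ratio of induced to control-promoter light gives a plate-wise z beyond ±2, or induced to uninduced beyond ±1.8; weak-control or discordant-duplicate wells dropped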
Calls: active = modifier hit (raised or lowered Notch signal); inactive = not a hit
The deposit covers about 22,000 reagents; this is a random part of those that have a named target and a result. In the full data, 403 (1.9%) got an active call. 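Unnormalised raw counts per well; ratio z-scores behind the hit calls and whether each hit raises or lowers signal are not deposited.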 A plus sign joins genes that one reagent is predicted to hit. Not given: the amount of reagent.

"induced reporter light, run 1, well a","induced reporter light, run 1, well b","control promoter light, run 1, well a","control promoter light, run 1, well b","uninduced reporter light, run 1, well a",outcome,predicted target,dsRNA
1.05e5,1.20e5,1.35e5,34040,14775,inactive,CG16753,DRSC08489
1.35e5,1.22e5,2.68e5,2.35e5,10065,inactive,CG3091,DRSC18274
1.27e5,1.47e5,1.47e5,1.63e5,13235,inactive,chico,DRSC03531
1.26e5,98430,78160,29680,10870,inactive,hay,DRSC11354
1.19e5,1.00e5,2.20e5,2.00e5,8890,inactive,inaF-B + inaF-D + inaF-C + 1 more,DRSC20342
1.26e5,1.47e5,82985,96095,11110,inactive,gnu,DRSC10497
44895,41370,36995,41000,4635,inactive,Spc105R,DRSC11663
2.04e5,2.19e5,2.51e5,2.41e5,17320,inactive,CG4009,DRSC15536
1.36e5,1.35e5,1.67e5,1.62e5,6065,inactive,CG12091,DRSC08251
1.21e5,1.06e5,1.08e5,65045,8160,inactive,VGlut,DRSC00733
1.14e5,1.35e5,1.62e5,1.41e5,8065,inactive,Act5C,DRSC17723
1.58e5,1.49e5,1.60e5,1.58e5,8005,inactive,Nhe3,DRSC03380
2.08e5,1.83e5,2.11e5,1.61e5,16185,inactive,Spn,DRSC07986
80495,84455,1.37e5,1.34e5,7060,inactive,Spn,DRSC08490
65480,99105,1.14e5,1.11e5,8135,inactive,Spn,DRSC08491
2.28e5,2.51e5,2.41e5,2.64e5,18605,inactive,CG12384,DRSC06145
77050,67185,83885,80400,11982,inactive,Efhc1.1,DRSC20135
1.62e5,1.62e5,2.10e5,2.27e5,14270,inactive,Or94a,DRSC16772
84775,95285,1.22e5,1.14e5,8465,inactive,CG30486,DRSC06680
1.43e5,73390,86945,78575,5455,inactive,robl37BC,DRSC02472
1.12e5,1.26e5,1.62e5,1.77e5,11570,inactive,SkpB,DRSC07683
1.24e5,1.16e5,1.47e5,1.69e5,12135,inactive,Gfat1,DRSC21219
1.95e5,2.15e5,1.06e5,1.57e5,20520,inactive,w-cup,DRSC03048
2.04e5,1.72e5,2.71e5,2.07e5,7585,inactive,PolD1,DRSC11138
86870,93420,85290,41560,7040,inactive,CG42329,DRSC00373
94290,1.10e5,75365,40195,9445,inactive,CG42329,DRSC00682
1.18e5,93225,61775,34725,7738,inactive,Muc68D,DRSC10569
75990,88470,1.13e5,1.03e5,5940,inactive,Nup133,DRSC16150
1.51e5,1.20e5,1.09e5,1.14e5,10788,inactive,Ccdc39,DRSC12286
2.32e5,2.09e5,2.79e5,1.92e5,14042,inactive,CrzR,DRSC09781
2.66e5,1.51e5,2.85e5,1.76e5,10010,inactive,CrzR,DRSC09782
1.33e5,1.34e5,2.41e5,2.99e5,11645,inactive,egh,DRSC18771
57340,67815,74545,82035,5000,inactive,br,DRSC17691
1.36e5,1.10e5,1.69e5,2.20e5,8800,inactive,br,DRSC17789
37420,40455,39735,55670,5055,inactive,br,DRSC18743
55510,56750,52410,44695,8788,inactive,br,DRSC18744
2.63e5,3.12e5,3.00e5,2.92e5,18792,inactive,aub,DRSC03486
93435,1.05e5,86740,95150,8725,active,Qsox1,DRSC06878
1.83e5,1.63e5,1.83e5,1.69e5,11215,inactive,CG14297,DRSC14776
,,,,,inactive,CG31909,DRSC22180
1.62e5,1.49e5,2.36e5,2.25e5,12515,inactive,l(1)sc,DRSC18789
1.20e5,1.24e5,1.61e5,1.64e5,10110,inactive,bam,DRSC16907
84765,98820,52815,51545,8060,inactive,CG7369,DRSC11822
1.09e5,1.31e5,92310,87980,9270,inactive,CG2656,DRSC12584
1.54e5,2.03e5,2.21e5,2.11e5,7400,inactive,Lk,DRSC10022
44475,46390,41065,35620,10065,inactive,UBL3,DRSC20298
89480,98200,84170,83260,6315,inactive,LKRSDH,DRSC03015
1.71e5,1.87e5,1.94e5,2.44e5,18210,inactive,tld,DRSC17084
1.14e5,1.07e5,1.38e5,1.49e5,10955,inactive,wat,DRSC14854
87825,78120,63915,76385,6015,inactive,wrapper,DRSC04723

Sorted by “control promoter light, run 1, well b” (high to low): 7 of the entries above
"induced reporter light, run 1, well a","induced reporter light, run 1, well b","control promoter light, run 1, well a","control promoter light, run 1, well b","uninduced reporter light, run 1, well a",outcome,predicted target,dsRNA
1.62e5,1.62e5,2.10e5,2.27e5,14270,inactive,Or94a,DRSC16772
2.04e5,1.72e5,2.71e5,2.07e5,7585,inactive,PolD1,DRSC11138
1.12e5,1.26e5,1.62e5,1.77e5,11570,inactive,SkpB,DRSC07683
1.24e5,1.16e5,1.47e5,1.69e5,12135,inactive,Gfat1,DRSC21219
1.95e5,2.15e5,1.06e5,1.57e5,20520,inactive,w-cup,DRSC03048
84775,95285,1.22e5,1.14e5,8465,inactive,CG30486,DRSC06680
1.43e5,73390,86945,78575,5455,inactive,robl37BC,DRSC02472
